In publication PMC8343220, “The selectivity of α‐adrenoceptor agonists for the human α1A, α1B, and α1D‐adrenoceptors” (Pharmacology Research & Perspectives, 2021):

Tests used:
Format in all cases: cell-based, Chinese hamster
[1] = test system: parental CHO cell line without any transfected receptors; test: Intracellular calcium mobilization, parent CHO cells without transfected receptors
[2] = test system: parental CHO cell line without any transfected receptors; test: ERK1/2‐phosphorylation, parent CHO cells without transfected receptors
[3] = test system: parental CHO cell line without any transfected receptors; test: ^3H‐cAMP accumulation, parent CHO cells without transfected receptors
[4] = test system: parental CHO cell line without any transfected receptors; test: Forskolin‐stimulated cAMP accumulation, parent CHO cells without transfected receptors

COc1ccc(CC(C)NCC(O)c2ccc(O)c(NC=O)c2)cc1 (stereo not shown) [Formoterol]
No response: Intracellular calcium release % ionomycin [1] | ERK1/2-phosphorylation % PDBu [2] | cAMP accumulation % forskolin [3] | cAMP accumulation (in presence of forskolin) % forskolin-stim cAMP [4]
